According to US5851808, “Rapid subcloning using site-specific recombination” (Baylor College of Medicine):
Protein sequences can lack the tags named with them.

Biological target: T1, Cre recombinase (UniProt P06956)
T1 sequence (looked up, limits assumed): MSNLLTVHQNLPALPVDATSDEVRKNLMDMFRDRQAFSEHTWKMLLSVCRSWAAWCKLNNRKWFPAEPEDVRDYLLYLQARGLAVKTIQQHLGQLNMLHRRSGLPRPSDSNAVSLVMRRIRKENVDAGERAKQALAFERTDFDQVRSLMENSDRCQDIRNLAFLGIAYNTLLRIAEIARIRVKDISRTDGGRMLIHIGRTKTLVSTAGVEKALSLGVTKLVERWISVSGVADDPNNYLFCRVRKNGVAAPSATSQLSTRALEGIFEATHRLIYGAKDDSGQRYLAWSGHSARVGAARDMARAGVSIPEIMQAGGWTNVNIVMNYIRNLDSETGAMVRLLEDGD
Experiment: activity in cells
Conditions: in vivo fusion of pUNI and pHOST in QLB4 cells; multimeric fusion products; protein in cells; protein details: untagged, lac-cre in E. coli QLB4; only the site is given

## ATAACTTCGTATAGCATACATTATACGAAGTTAT (double strand) [loxP wild-type]
  activity on this sequence: active
